## Library screen at single concentrations

The chains behind the UniProt entries cited, without tags or fusion partners. Residues count along the entry.
UniProt P9WPC5, whole entry: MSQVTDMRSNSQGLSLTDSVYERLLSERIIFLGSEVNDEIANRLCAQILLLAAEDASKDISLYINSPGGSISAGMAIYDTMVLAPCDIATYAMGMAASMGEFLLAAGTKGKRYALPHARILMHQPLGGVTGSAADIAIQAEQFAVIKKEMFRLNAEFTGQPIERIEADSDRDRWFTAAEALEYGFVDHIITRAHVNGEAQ
UniProt P9WPC3, whole entry partner: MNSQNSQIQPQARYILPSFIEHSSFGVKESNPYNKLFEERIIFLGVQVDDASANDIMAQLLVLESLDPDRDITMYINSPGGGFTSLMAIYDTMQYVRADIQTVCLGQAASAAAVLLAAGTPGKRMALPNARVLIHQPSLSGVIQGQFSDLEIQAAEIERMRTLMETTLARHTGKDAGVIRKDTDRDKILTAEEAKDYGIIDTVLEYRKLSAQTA
UniProt Q8IDJ8, 1-583: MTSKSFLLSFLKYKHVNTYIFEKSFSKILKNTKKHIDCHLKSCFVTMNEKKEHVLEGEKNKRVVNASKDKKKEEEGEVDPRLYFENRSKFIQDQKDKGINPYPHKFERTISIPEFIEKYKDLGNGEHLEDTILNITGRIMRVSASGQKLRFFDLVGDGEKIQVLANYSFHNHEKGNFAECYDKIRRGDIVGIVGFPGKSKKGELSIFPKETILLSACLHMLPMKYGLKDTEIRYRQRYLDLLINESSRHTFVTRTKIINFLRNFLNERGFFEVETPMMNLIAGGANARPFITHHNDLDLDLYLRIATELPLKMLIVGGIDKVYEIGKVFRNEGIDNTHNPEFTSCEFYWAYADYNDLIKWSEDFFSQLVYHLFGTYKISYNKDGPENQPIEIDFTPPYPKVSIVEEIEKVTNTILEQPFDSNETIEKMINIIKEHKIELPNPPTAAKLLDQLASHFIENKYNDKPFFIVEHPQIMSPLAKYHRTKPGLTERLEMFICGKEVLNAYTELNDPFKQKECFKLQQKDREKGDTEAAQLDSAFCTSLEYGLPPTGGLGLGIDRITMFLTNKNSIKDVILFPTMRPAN

From ChEMBL document CHEMBL3988442, “University of Dundee, Small-Polar-MMV Screening Library” (2021).

Results are given as percent effect.
The controls that fix the scale are not given in the record; negative values are as filed.
The compounds are a random part of those screened.
Two or more numbers in one place are separate tests of the same structure; such repeats can differ widely.
A dash means the value is not listed here; it may have been measured.

Leishmania in macrophages: 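Cell assay of Leishmania donovani living inside macrophages; the read-out is not stated. Concentration: 30 µM. Direction is inferred from retests: higher values go with stronger inhibition. About 69,000 compounds were tested under these conditions; 1.5% (about 1,000) showed 50% or more at least once.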
ClpP1P2: 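Protease assay of ClpP1P2, read by the AMC dye that it sets free. Target: ClpP1P2, Mycobacterium tuberculosis (UniProt P9WPC5 and UniProt P9WPC3). Compounds at 50 µM. Direction is inferred from only a few compounds that gave an IC50; most scored high, so higher reads as stronger inhibition. Most other retested compounds had strongly negative values. About 69,000 compounds were tested under these conditions; 0.015% (about 10) showed 50% or more at least once.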
Toxoplasma: 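Assay of Toxoplasma gondii numbers, read through their beta-galactosidase reporter with a colour substrate. Tested at 10 µM. Higher reads as fewer parasites (inferred from which compounds were picked for retests). Of about 67,000 compounds tested this way, about 260 (0.38%) reached 50% or more in at least one test.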
PfKRS1: 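Enzyme assay of the cytosolic lysyl-tRNA synthetase in 384-well plates, read by luminescence. Target: Lysine-tRNA ligase, Plasmodium falciparum 3D7 (UniProt Q8IDJ8). Tested at 30 µM. Direction is inferred from only a few compounds that gave an IC50; most scored high, so higher reads as stronger inhibition. Of about 69,000 compounds tested this way, about 49 (0.071%) reached 50% or more in at least one test.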

SMILES,Leishmania in macrophages,ClpP1P2,Toxoplasma,PfKRS1
Cc1ccc(OCC(=O)NCC(F)(F)F)nc1,-3.741,-4.802,7.258,5.711
CS(=O)(=O)CCC(=O)N1CCC(c2cccc(F)c2)C1 (stereo unspecified),9.661,-3.862,0.3386,0.6951
CCC(=O)N1CCC(NC2CCSCC2)C1 (stereo unspecified),-7.691,-2.75,7.355,2.653
CN1CCCC(c2cncc(-c3cccc(C(F)(F)F)c3)n2)C1 (stereo unspecified),-19.59,9.118,36.41,1.974
CN1CCC/C1=N\S(=O)(=O)c1ccc(NC(=O)c2ccc(Cl)s2)cc1,4.194,-11.06,15.26,0.3484
COCC(c1ccccn1)N(C)C(=O)c1cc(-c2cccn2C)n[nH]1 (stereo unspecified),9.531,7.843,6.727,3.307
O=S(=O)(Cc1ccccc1CN1CC[C@H](CO)[C@H](O)C1)c1ccccc1,22.14,-11.89,-,5.439
Cc1cccc(CN2CCC(Cc3ccccc3F)CC2)n1,30.06,-4.309,13.86,-2.652
Cc1c(C(=O)N2CCCC(n3cncn3)C2)cnn1C (stereo unspecified),17.08,-15.4,16.46,0.0402
O=C(CCCn1cncn1)N1CCCC1c1noc(C2CC2)n1 (stereo unspecified),11.77,8.528,-33.89,0.8575
Cc1cccc(-c2noc(CN3CCC(N4CCNC4=O)CC3)n2)c1,37,-1.798,3.706,0.1739
COCC(=O)N1CCC2(CC1)CN(CC1CC1)c1ccc(F)cc12,26.89,-4.3,-47.37,2.093
CCOCC1CN(Cc2cnn(C)c2)Cc2c1cnn2CC (stereo unspecified),-,20.18,-,3.627
Cn1nc(CN2CCCC2)c2c1CN(C(=O)Nc1cccc(F)c1)CC2.O=C(O)C(F)(F)F,7.394,-,-9.145,-
COc1ccc(CN2CCN(c3ncc(Cl)cn3)CC2)cc1,16.57,-8.784,-12.24,-4.949
CN(C)c1nc2c(c(N3CCCC3)n1)CCN(C(=O)c1ccc[nH]1)CC2,-14.78,-13.21,-16.52,-1.126
CC(C)c1cnc(CN2CCCC(c3cc(C(N)=O)[nH]n3)C2)o1 (stereo unspecified),20.02,-3.531,-57.06,1.015
[H][C@@]12CS(=O)(=O)C[C@]1([H])N(C(=O)Nc1ccc(Cl)cc1)CCN2C(C)=O,31.27,-,0.2187,-
O=C(O)c1cc2c(nc1-c1ccncc1)CCN(Cc1ccoc1)CC2,-16.65,8.048,6.706,-2.949
CN(C)S(=O)(=O)NCCn1nc(-c2ccccc2)n(C)c1=O,9.084 and 4.002,3.392,-2.317,11.78
Cc1cc(C)n(CC(C)NC2CCN(Cc3cccc(O)c3)CC2)n1 (stereo unspecified),21.91,-6.988,4.468,-0.7786
COC(=O)CNC(=O)C1CCN(S(C)(=O)=O)CC1,36.51,-0.055,1.04,4.792
COc1cccc(-n2c(C)cc(C(=O)NCCCC(N)=O)c2C)c1,28,-3.747,5.187,1.092
Cc1ccc(S(=O)(=O)NCC(C)(C)N)c(F)c1,-,-13.61,-,-1.322
COCCN1CCn2cc(CN(C)Cc3ccco3)nc2C1,-8.092,-3.636,-2.884,-4.596
c1ccc(C2CN(C3CC3)CC3(CCN(Cc4cscn4)CC3)C2)cc1 (stereo unspecified),44.85,-1.34,21.46,5.52
O=C(NC1CCCC1)c1nc(COc2ccc3c(c2)OCO3)no1,33.21,-14.64,-45.15,-8.962
CCn1ccnc1CN1CCCN(C(=O)c2ccnn2C)CC1,26.83,-30.23,-24.94,-0.1868
O=C(COc1cccc(F)c1)N1C[C@H](CO)C[C@H](CN2CCCC2)C1,6.365,-15.47,5.387,5.401
Cc1cnc(N2C[C@@H]3[C@@H](C2)OCC(=O)N3CC2CC2)nc1,-,-6.25,-,0.1987
CC(C)Cc1cc(C(=O)NC(C)(C)CN2CCCCCC2)on1,-15.72,-8.663,5.681,7.964
CCN(CC)S(=O)(=O)c1cnccc1N1CCN(C(C)C)CC1,11.56,13.26,8.77,8.027
CCc1ccsc1C(=O)N1CCN(CC(C)O)CC1 (stereo unspecified),13.81,-22.83,16.93,0.8039
COCCN1CCCC2(CCN(c3cccc(C(F)(F)F)n3)C2)C1=O (stereo unspecified),15.06,-5.908,-3.329,-0.4171
O=C(O)C(F)(F)F.O=C(O)C(F)(F)F.O=C(c1c[nH]cn1)N1CCC(F)(F)C2(CCN(c3ccccn3)C2)C1 (stereo unspecified),16.19 and 13.65,-,-6.546,-
[H][C@@]12CS(=O)(=O)C[C@]1([H])N(Cc1nc3ccccc3[nH]1)CCN2CC(C)C,3.598,-,-0.1595,-
CCCS(=O)(=O)N1CCN(c2cc(-n3nc(C)cc3C)nc(C)n2)CC1,11.19,-13.7,11.81,-4.574
Cn1cc(C(=O)N2CCN(Cc3ccccn3)CC2)ccc1=O,-8.448,-8.001,0.6818,-3.983
COCc1noc(C2(c3ccc(F)cc3)CCC2)n1,17.61,-19.96,2.276,3.447

4 of the entries, repeated:

* Cc1c(C(=O)N2CCCC(n3cncn3)C2)cnn1C (stereo unspecified) : Leishmania in macrophages: 17.08%; ClpP1P2: -15.4%; Toxoplasma: 16.46%; PfKRS1: 0.0402%
* CCN(CC)S(=O)(=O)c1cnccc1N1CCN(C(C)C)CC1 : Leishmania in macrophages: 11.56%; ClpP1P2: 13.26%; Toxoplasma: 8.77%; PfKRS1: 8.027%
* CCC(=O)N1CCC(NC2CCSCC2)C1 (stereo unspecified) : Leishmania in macrophages: -7.691%; ClpP1P2: -2.75%; Toxoplasma: 7.355%; PfKRS1: 2.653%
* COCCN1CCn2cc(CN(C)Cc3ccco3)nc2C1 : Leishmania in macrophages: -8.092%; ClpP1P2: -3.636%; Toxoplasma: -2.884%; PfKRS1: -4.596%